Structures can show the parent of a compound that is named as a salt. ± gives the standard deviation of the averaged measurements. This is one part of the list. These are raw signals, not scaled to a control.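 HeLa cells imaged for ribosome-assembly readouts (ENP1 staining with or without export block, or inducible tagged ribosomal protein reporters); machine learning classified each cell's signal location against solvent (DMSO) controls. Hits exceeded the DMSO false-positive mean by five standard deviations, then were visually confirmed; three biological replicates.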

For the experiment, the system named is HeLa K (ENP1 immunofluorescence, no LMB). Description: fraction of cells with nucleolar or nucleolar/nucleoplasmic ENP1 signal (MainHitrate); higher = more cells with nucleolar/nuclear readout signal (for ENP1 -LMB: less RNAPI inhibition; for +LMB ENP1 and RP reporters: stronger nuclear/nucleolar retention, i.e. ribosome biogenesis defect). Particulars: concentration: 1 µM; treatment time: 6 h; ENP1 -LMB; leptomycin B: none.
`COc1ccc2[nH]c([S@@+]([O-])Cc3ncc(C)c(OC)c3C)nc2c1` [Esomeprazole magnesium (Nexium)]: the fraction was found to be 0.9988 ± 0.002.
As for `CCC(NC(C)C)C(O)c1ccc(O)c(O)c1` (centres undefined) [Isoetharine Mesylate], the figure is 0.9953 ± 0.0082; as for `O=C1CC[C@@H](C(=O)N2CSC[C@H]2C(=O)O)N1` [Pidotimod], 0.988 ± 0.021; as for `O=C(NCCN1CCOCC1)c1ccc(Cl)cc1` [Moclobemide], 0.988 ± 0.02.
As for `C[C@H]1C[C@@H]2[C@H]([C@@H](O)C[C@@]3(C)[C@H]2CC[C@]3(O)C(=O)CO)[C@@]2(C)C=CC(=O)C=C12` [Methylprednisolone], the figure is 0.9979 ± 0.0036.
Turning to `CCc1ccc(CCOc2ccc(CC3SC(=O)NC3=O)cc2)nc1` (centres undefined) [Pioglitazone (Actos)], the fraction was 0.988 ± 0.021.
In turn, `NS(=O)(=O)c1cc(Cl)c(Cl)c(S(N)(=O)=O)c1` [Dichlorphenamide (Diclofenamide)] gave a fraction of 0.991 ± 0.015.
As for `O=P(O)(O)C(O)(Cc1cccnc1)P(=O)(O)O` [Risedronic acid (Actonel)], the figure is 0.9956 ± 0.0077; as for `CC(C)(S)[C@@H](N)C(=O)O` [Penicillamine (Cuprimine)], 0.9963 ± 0.0064; as for `CCCCN1CCCCC1C(=O)Nc1c(C)cccc1C` (centres undefined) [Bupivacaine hydrochloride (Marcain)], 0.9953 ± 0.0081.
As for `CC(C)OC(=O)OCOP(=O)(CO[C@H](C)Cn1cnc2c(N)ncnc21)OCOC(=O)OC(C)C` [Tenofovir Disoproxil Fumarate], the figure is 0.999 ± 0.0018; as for `CC(=O)Oc1ccccc1C(=O)O` [Aspirin (Acetylsalicylic acid)], 0.965 ± 0.061; as for `O=C1O[C@H]([C@@H](O)CO)C([O-])=C1O.[Na+]` [Sodium ascorbate], 0.986 ± 0.024.
As for `C=C1c2c(Cl)ccc(O)c2C(=O)C2=C(O)[C@]3(O)C(=O)C(C(N)=O)=C(O)[C@@H](N(C)C)[C@@H]3[C@@H](O)[C@H]12.O=C(O)c1cc(S(=O)(=O)O)ccc1O` [Meclocycline Sulfosalicylate], the figure is 0.986 ± 0.024.
Turning to `O[C@@H]1CO[C@H]2[C@@H]1OC[C@@H]2O` [Isosorbide], the fraction stood at 0.9965 ± 0.006.
To `O=NN(CCCl)C(=O)NC1CCCCC1` [Lomustine (CeeNU)] belongs 0.9944 ± 0.0097.
As for `O=C(O)c1cc(=O)c2ccccc2o1` [Chromocarb], the figure is 0.986 ± 0.024; as for `CNC[C@@H](O)c1ccc(O)c(O)c1` [L-Adrenaline (Epinephrine)], 0.992 ± 0.013; as for `CC(=O)[C@H]1CC[C@H]2[C@@H]3C[C@H](C)C4=CC(=O)CC[C@]4(C)[C@H]3[C@@H](O)C[C@]12C` [Medrysone], 0.9959 ± 0.0072.
In turn, `O=P(O)(O)C(O)(Cn1ccnc1)P(=O)(O)O` [Zoledronic Acid (Zoledronate)] had a fraction of 0.9972 ± 0.0048.
`CN1CCC(=C2c3ccccc3C=Cc3ccccc32)CC1` [Cyproheptadine HCl (Periactin)] had a fraction of 0.992 ± 0.014.
In turn, `N=C(N)NC(=N)NCCc1ccccc1` [Phenformin hydrochloride] came in with a fraction of 0.991 ± 0.015.
As for `CNC(=O)CN(CCN(CCN(CC(=O)O)CC(=O)NC)CC(=O)O)CC(=O)O.O.[Gd]` [Gadodiamide (Omniscan)], the figure is 0.9985 ± 0.0026; as for `CCOc1ccc2nc(S(N)(=O)=O)sc2c1` [Ethoxzolamide], 0.993 ± 0.013.
In turn, `CN(C/C=C/C#CC(C)(C)C)Cc1cccc2ccccc12` [Terbinafine hydrochloride (Lamisil)] showed a fraction of 0.9944 ± 0.0097.
`CCCCCOC(=O)Nc1nc(=O)n([C@@H]2O[C@H](C)[C@@H](O)[C@H]2O)cc1F` [Capecitabine (Xeloda)]: the fraction came out at 0.9981 ± 0.0034.
To `CCOC(=O)[C@H](CCc1ccccc1)N[C@@H](C)C(=O)N1Cc2ccccc2C[C@H]1C(=O)O` [Quinapril HCl (Accupril)] belongs 0.9944 ± 0.0097.
In turn, `CC(C)(CO)[C@@H](O)C(=O)NCCC(=O)O` [Pantothenic acid (pantothenate)] displayed a fraction of 0.9963 ± 0.0064.
As for `CCOC(=O)C1=C[C@]2(CC)CCCN3CCc4c(n1c1ccccc41)[C@@H]32` [Vinpocetine (Cavinton)], the figure is 0.992 ± 0.013; as for `CS(=O)(=O)CCNCc1ccc(-c2ccc3ncnc(Nc4ccc(OCc5cccc(F)c5)c(Cl)c4)c3c2)o1` [Lapatinib], 0.9948 ± 0.0091.
To `CN(C)CCOc1ccc(/C(=C(/CCCl)c2ccccc2)c2ccccc2)cc1` [Toremifene Citrate (Fareston, Acapodene)] belongs 0.9993 ± 0.0012; to `CN(C)[C@@H]1C(O)=C(C(N)=O)C(=O)[C@@]2(O)C(O)=C3C(=O)c4c(O)cccc4[C@@](C)(O)[C@H]3[C@H](O)[C@@H]12` [Oxytetracycline (Terramycin)], 0.9994 ± 0.001; to `NC(=O)OCC(COC(N)=O)c1ccccc1` [Felbamate], 0.9981 ± 0.0032.
To `O=C1CCc2cc(OCCCCc3nnnn3C3CCCCC3)ccc2N1` [Cilostazol] belongs 0.9978 ± 0.0038; to `O=C(O)C1=CO[C@@H](O[C@@H]2O[C@H](CO)[C@@H](O)[C@H](O)[C@H]2O)[C@@H]2C(CO)=CC[C@H]12` [Geniposidic acid], 0.993 ± 0.012; to `O=C1NC(=O)C(c2ccccc2)(c2ccccc2)N1` [Phenytoin (Lepitoin)], 0.9957 ± 0.0075.
`CCN1CC(CCN2CCOCC2)C(c2ccccc2)(c2ccccc2)C1=O` (centres undefined) [Doxapram HCl] displayed a fraction of 0.988 ± 0.021.
As to `C[C@]12C=CC(=O)C=C1CC[C@@H]1[C@@H]2[C@@H](O)C[C@@]2(C)[C@H]1CC[C@]2(O)C(=O)CO` [Prednisolone (Hydroretrocortine)], the fraction is 0.9989 ± 0.002.
To `C[C@H](Cn1cnc2c(N)ncnc21)OCP(=O)(O)O` [Tenofovir (Viread)] belongs 0.9983 ± 0.0029.
